Measurements taken from US20100290984A1 (DUKE UNIVERSITY, published 2010).
Results are given in words; binding and its absence hold for the method and conditions named. Some results given as binding are weak or reduced against the parent protein; the word gives no strength.

The chains behind the UniProt entries cited, without tags or fusion partners.
UniProt O15438: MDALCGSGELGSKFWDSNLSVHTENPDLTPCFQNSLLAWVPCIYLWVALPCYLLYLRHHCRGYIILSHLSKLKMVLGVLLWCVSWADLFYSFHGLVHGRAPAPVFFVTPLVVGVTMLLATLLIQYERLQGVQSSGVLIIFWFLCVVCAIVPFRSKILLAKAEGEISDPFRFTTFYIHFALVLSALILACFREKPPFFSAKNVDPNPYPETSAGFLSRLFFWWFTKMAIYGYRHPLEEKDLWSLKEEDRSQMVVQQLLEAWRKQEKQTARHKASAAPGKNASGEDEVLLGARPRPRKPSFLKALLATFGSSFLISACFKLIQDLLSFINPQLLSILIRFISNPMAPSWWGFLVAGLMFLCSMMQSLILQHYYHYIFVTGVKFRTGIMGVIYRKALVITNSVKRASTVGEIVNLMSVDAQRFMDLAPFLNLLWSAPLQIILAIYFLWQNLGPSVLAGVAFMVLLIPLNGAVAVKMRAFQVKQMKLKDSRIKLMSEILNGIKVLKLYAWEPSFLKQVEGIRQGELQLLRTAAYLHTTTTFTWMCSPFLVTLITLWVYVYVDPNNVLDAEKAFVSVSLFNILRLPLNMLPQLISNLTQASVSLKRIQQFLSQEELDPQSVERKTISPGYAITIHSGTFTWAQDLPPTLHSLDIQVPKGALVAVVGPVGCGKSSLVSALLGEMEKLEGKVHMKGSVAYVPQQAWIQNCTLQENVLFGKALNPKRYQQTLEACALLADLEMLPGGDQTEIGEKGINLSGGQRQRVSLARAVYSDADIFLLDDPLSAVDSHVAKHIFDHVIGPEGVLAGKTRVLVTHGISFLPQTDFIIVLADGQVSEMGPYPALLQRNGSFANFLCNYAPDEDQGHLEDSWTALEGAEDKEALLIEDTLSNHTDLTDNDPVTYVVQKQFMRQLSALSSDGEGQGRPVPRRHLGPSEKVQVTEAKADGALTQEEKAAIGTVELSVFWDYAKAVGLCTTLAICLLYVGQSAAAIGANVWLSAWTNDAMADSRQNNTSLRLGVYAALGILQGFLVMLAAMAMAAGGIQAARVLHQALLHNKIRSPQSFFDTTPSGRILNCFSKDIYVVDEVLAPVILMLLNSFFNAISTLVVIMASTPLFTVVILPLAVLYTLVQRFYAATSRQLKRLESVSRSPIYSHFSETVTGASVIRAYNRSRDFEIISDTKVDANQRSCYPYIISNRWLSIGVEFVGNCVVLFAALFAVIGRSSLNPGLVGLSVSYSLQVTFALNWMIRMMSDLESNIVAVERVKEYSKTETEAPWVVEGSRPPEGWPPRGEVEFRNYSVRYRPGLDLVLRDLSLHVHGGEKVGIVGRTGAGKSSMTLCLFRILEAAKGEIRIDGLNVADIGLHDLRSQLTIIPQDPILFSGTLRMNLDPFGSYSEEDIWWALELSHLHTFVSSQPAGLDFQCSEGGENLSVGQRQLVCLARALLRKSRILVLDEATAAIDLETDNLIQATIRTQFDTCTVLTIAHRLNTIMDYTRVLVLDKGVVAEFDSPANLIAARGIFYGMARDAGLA

How the values were obtained:
[1] = biological target: human multidrug resistance protein 3 (MRP3) (human) (UniProt O15438); assay: indirect flow cytometry on D247MG and D54MG cells, anti-His-FITC
[2] = biological target: human multidrug resistance protein 3 (MRP3) (human) (UniProt O15438); assay: indirect flow cytometric analysis (FACS)
[3] = biological target: human multidrug resistance protein 3 (MRP3) (human) (UniProt O15438); assay: indirect flow cytometry on MRP3-expressing glioma cells

Measured: binding

B1: PepII-89 scFv (scFv)
scFv: QVQLVQSGGGVVQPGRSLRLSCAASGFTFSSYGMHWVRQDPGKGLMWVSSISTDGSATKYADSVKGRFTISRDNAKNTVSLQMNSLRAEDTAVYYCVGGFLGWWGQGTLVTVSSGGGGSGGGGSGGGGSEIVLTQSPATLSLSPGERATLSCRASQSVGGSYLAWYQQKPGQAPRLLIYGASRRATGIPARFSGSGSGTDFTLTISSLQPEDFASYFCQQTNTFPLTFGGGTKVEIKRTVAAPTAAA
notes: also called anti-MRP3 PepII-89scFv; not shown: Myc and hexahistidine tags from the pET 22(+) vector, at the C terminus
binds: all assays above
